Measurements reported in PubChem BioAssay AID1259254 (NCATS, 2017)

Assay: 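Finding genes that stop cells copying their DNA twice in one cycle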 (primary screen)
System: human HCT116 colorectal cancer cells
Reagent: single siRNA against human genes
Timing: 3 days
Measured: 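Imaged Hoechst DNA stain sorts each cell into a cycle phase by DNA amount; per plate, G2 fraction set to 0% for non-targeting and 100% for GMNN siRNA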
Reading the numbers: G2 robust z-score and G2 cells, % of GMNN control: higher = more G2 cells, more excess DNA replication
Active means: 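Active siRNAs have a G2 robust z of 5 or more median absolute deviations over the median, which in these data means about 38% or higher of GMNN control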
The whole screen tested about 59,000 reagents; this is a random part of them. About 1,550 of all reagents (2.6%) were called active. 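G2 share is only a proxy for re-replication; each gene was hit by three separate siRNAs, and active genes were retested.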 Entries without a mark were called inactive. Further read-outs or replicates are left out here. No sequences are given here. The record does not give: the amount of reagent.

For CFAP206 (cilia and flagella associated protein 206) [SID160759420], the entry reads G2 robust z-score 1.42; G2 cells, % of GMNN control 12.9.
After knock-down of CFAP206 (cilia and flagella associated protein 206) [SID160759421], the screen gave G2 robust z-score 0.149; G2 cells, % of GMNN control 4.02.
CFAP206 (cilia and flagella associated protein 206) [SID160759422] scored G2 robust z-score 0.871; G2 cells, % of GMNN control 9.1.
After knock-down of RBM43 (RNA binding motif protein 43) [SID160733163], the screen gave G2 robust z-score -0.723; G2 cells, % of GMNN control -2.12.
For RBM43 (RNA binding motif protein 43) [SID160765397], the entry reads G2 robust z-score -0.431; G2 cells, % of GMNN control -0.0637.
After knock-down of RBM43 (RNA binding motif protein 43) [SID160765398] the results were G2 robust z-score 2.35; G2 cells, % of GMNN control 19.5.
With knock-down of GAP43 (growth associated protein 43) [SID160769229], the screen gave G2 robust z-score 0.241; G2 cells, % of GMNN control 4.66.
Against GAP43 (growth associated protein 43) [SID160769241] the deposit lists G2 robust z-score 0.268; G2 cells, % of GMNN control 4.85.
With knock-down of GAP43 (growth associated protein 43) [SID160769251], the screen gave G2 robust z-score 0.239; G2 cells, % of GMNN control 4.65.
Against TCF7L2 (transcription factor 7 like 2) [SID160717803], the values are G2 robust z-score 1.74; G2 cells, % of GMNN control 15.2.
With knock-down of TCF7L2 (transcription factor 7 like 2) [SID160717804] the results were G2 robust z-score -0.539; G2 cells, % of GMNN control -0.824.
For TCF7L2 (transcription factor 7 like 2) [SID160717805] the deposit lists G2 robust z-score -1.31; G2 cells, % of GMNN control -6.26.

Sorted by “G2 cells, % of GMNN control” (high to low): 4 of the entries above.
RBM43 (RNA binding motif protein 43) [SID160765398]: G2 robust z-score = 2.35; G2 cells, % of GMNN control = 19.5
GAP43 (growth associated protein 43) [SID160769241]: G2 robust z-score = 0.268; G2 cells, % of GMNN control = 4.85
GAP43 (growth associated protein 43) [SID160769229]: G2 robust z-score = 0.241; G2 cells, % of GMNN control = 4.66
GAP43 (growth associated protein 43) [SID160769251]: G2 robust z-score = 0.239; G2 cells, % of GMNN control = 4.65

The results go on.
PLCD4 (phospholipase C delta 4) [SID160752732] gave G2 robust z-score -0.75; G2 cells, % of GMNN control -2.31.
Depletion of PLCD4 (phospholipase C delta 4) [SID160752733] resulted in: G2 robust z-score -0.857; G2 cells, % of GMNN control -3.06.
Against PLCD4 (phospholipase C delta 4) [SID160752735] the deposit lists G2 robust z-score 1.78; G2 cells, % of GMNN control 15.5.
FZD9 (frizzled class receptor 9) [SID160719869] gave G2 robust z-score 0.855; G2 cells, % of GMNN control 8.99.
After knock-down of FZD9 (frizzled class receptor 9) [SID160719870], the record shows G2 robust z-score 0.124; G2 cells, % of GMNN control 3.84.
Depletion of FZD9 (frizzled class receptor 9) [SID160731983] resulted in: G2 robust z-score -0.424; G2 cells, % of GMNN control -0.0133.
For FGF18 (fibroblast growth factor 18) [SID160720881], the entry reads G2 robust z-score 0.813; G2 cells, % of GMNN control 8.69.
Silencing of FGF18 (fibroblast growth factor 18) [SID160720882] gave: G2 robust z-score 1.71; G2 cells, % of GMNN control 15.
FGF18 (fibroblast growth factor 18) [SID160735153] scored G2 robust z-score -0.923; G2 cells, % of GMNN control -3.52.
With knock-down of CEBPA (CCAAT enhancer binding protein alpha) [SID160741582] the results were G2 robust z-score 0.0384; G2 cells, % of GMNN control 3.24.
After knock-down of CEBPA (CCAAT enhancer binding protein alpha) [SID160741593], the record shows G2 robust z-score 0.793; G2 cells, % of GMNN control 8.55.
After knock-down of CEBPA (CCAAT enhancer binding protein alpha) [SID160741605] the results were G2 robust z-score 1.94; G2 cells, % of GMNN control 16.6.
Silencing of S100A16 (S100 calcium binding protein A16) [SID160730631] came out at: G2 robust z-score -0.234; G2 cells, % of GMNN control 1.32.
With knock-down of S100A16 (S100 calcium binding protein A16) [SID160757793], the screen gave G2 robust z-score 0.883; G2 cells, % of GMNN control 9.18.
S100A16 (S100 calcium binding protein A16) [SID160757794] showed G2 robust z-score 1.83; G2 cells, % of GMNN control 15.8.
With knock-down of PYGO1 (pygopus family PHD finger 1) [SID160737639], the record shows G2 robust z-score 0.807; G2 cells, % of GMNN control 8.64.
Depletion of PYGO1 (pygopus family PHD finger 1) [SID160737640] resulted in: G2 robust z-score 0.0418; G2 cells, % of GMNN control 3.26.
For PYGO1 (pygopus family PHD finger 1) [SID160737641], the values are G2 robust z-score -0.576; G2 cells, % of GMNN control -1.08.
